These results are taken from PubChem BioAssay AID192 (DTP/NCI, 2004).

The assay concerns BDF1 mice, B16 melanoma ip, median survival T/C. Nature of the assay: NCI In Vivo Anticancer Drug Screen. Data for tumor model B16 Melanoma (intraperitoneal) in B6D2F1 (BDF1) mice. The following applies: T/C endpoint: median survival time, higher T/C = longer survival. As to the method:
The antitumor activity of compounds was measured in mice bearing transplantable tumors. Survival or tumor size were measured and the results are expressed as the measurement made in the treated group (T) divided by the measurement made in the vehicle treated control group (C). The tumor model used in this assay is B16 Melanoma (intraperitoneal) in B6D2F1 (BDF1) mice

[1] abbreviates: dose: 25.0 mg/kg/injection, schedule: Q01DX009 (ip), vehicle: saline.
[2] abbreviates: dose: 50.0 mg/kg/injection, schedule: Q01DX009 (ip), vehicle: saline.
[3] abbreviates: dose: 100.0 mg/kg/injection, schedule: Q01DX009 (ip), vehicle: saline.
The mark [4] stands for this setting: dose: 6.25 mg/kg/injection, schedule: Q01DX009 (ip), vehicle: Klucel (hydroxypropylcellulose) (HPC).
Where [5] appears, read: dose: 12.5 mg/kg/injection, schedule: Q01DX009 (ip), vehicle: Klucel (hydroxypropylcellulose) (HPC).
Setting [6] is: dose: 25.0 mg/kg/injection, schedule: Q01DX009 (ip), vehicle: Klucel (hydroxypropylcellulose) (HPC).
Setting [7] is: dose: 50.0 mg/kg/injection, schedule: Q01DX009 (ip), vehicle: Klucel (hydroxypropylcellulose) (HPC).
Setting [8] is: dose: 100.0 mg/kg/injection, schedule: Q01DX009 (ip), vehicle: Klucel (hydroxypropylcellulose) (HPC).
Where [9] appears, read: dose: 200.0 mg/kg/injection, schedule: Q01DX009 (ip), vehicle: Klucel (hydroxypropylcellulose) (HPC).

The list is a part of this screen's results and no random one: it gathers some chemical classes. Other doses and runs of a compound may be missing. T/C gives the treated animals as a percentage of the vehicle group. Some doses have a count of surviving animals in place of a T/C: the source files T/C as zero there, which appears to mark a toxic dose or a test without result, not a measured value. Some doses without a T/C left all or most animals alive at the check, yet need not have been tolerated: survival well below the control is almost never listed, so the zero probably covers shortened survival too. Counts of survivors are from the toxicity check (mostly the fifth day) where no day follows; animals may have died later. Schedules are NCI's codes, taken here to give the interval after Q, in days (D) or hours (H), and the number of doses after X. Where survival is the endpoint, this PubChem deposit counts one and a half times the control or more as active, and values a quarter to a half above the control carry no call in these data; other NCI protocols may use other cut-offs. Marks such as (2×) count equal records among those shown. Some entries were tested several times; the values are given in rising order. Some T/C values carry the count of animals alive at the toxicity check (mostly the fifth day); without a count or a note in brackets, all were alive then.

In the case of `NP(=O)(N(CCCl)CCCl)N1CC1` (stereo not drawn), the T/C is, setting by setting: (dose: 6.25 mg/kg/injection, schedule: Q01DX009 (ip), vehicle: saline) 110 % of control [7 of 10 alive]; (dose: 12.5 mg/kg/injection, schedule: Q01DX009 (ip), vehicle: saline) 116 % of control [8 of 10 alive]; (dose: 25.0 mg/kg/injection, schedule: Q01DX001 (ip), vehicle: saline) 108 % of control; under setting [1], 96 % of control [9 of 10 alive]; (dose: 25.0 mg/kg/injection, schedule: Q04DX003 (ip), vehicle: saline) 136 % of control; (dose: 25.0 mg/kg/injection, schedule: Q08DX002 (ip), vehicle: saline) 113 % of control. Moreover, the T/C was 123 % of control (dose: 50.0 mg/kg/injection, schedule: Q01DX001 (ip), vehicle: saline); 134 % of control (dose: 50.0 mg/kg/injection, schedule: Q08DX002 (ip), vehicle: saline); 123 % of control (dose: 100.0 mg/kg/injection, schedule: Q01DX001 (ip), vehicle: saline). In addition, the survivor count is reported as 6 of 10 under setting [2]; 10 of 10 (dose: 50.0 mg/kg/injection, schedule: Q04DX003 (ip), vehicle: saline); 3 of 10 under setting [3]; 4 of 10 (dose: 100.0 mg/kg/injection, schedule: Q04DX003 (ip), vehicle: saline); 8 of 10 (dose: 100.0 mg/kg/injection, schedule: Q08DX002 (ip), vehicle: saline); 8 of 10 (dose: 200.0 mg/kg/injection, schedule: Q01DX001 (ip), vehicle: saline). The survivor count is, setting by setting: (dose: 200.0 mg/kg/injection, schedule: Q04DX003 (ip), vehicle: saline) 1 of 10; (dose: 200.0 mg/kg/injection, schedule: Q08DX002 (ip), vehicle: saline) 2 of 10; (dose: 400.0 mg/kg/injection, schedule: Q01DX001 (ip), vehicle: saline) 6 of 10; (dose: 400.0 mg/kg/injection, schedule: Q04DX003 (ip), vehicle: saline) 0 of 10; (dose: 400.0 mg/kg/injection, schedule: Q08DX002 (ip), vehicle: saline) 0 of 10.
With `ICCN(CCI)c1cccc2ccccc12`, the T/C was 119 % of control (dose: 1.56 mg/kg/injection, schedule: Q01DX009 (ip), vehicle: Klucel (hydroxypropylcellulose) (HPC)); 137 % of control (dose: 3.12 mg/kg/injection, schedule: Q01DX009 (ip), vehicle: Klucel (hydroxypropylcellulose) (HPC)); 130 % of control under setting [4]; 146 % of control under setting [5]; 157 % of control under setting [6]. Also, under setting [7], the survivor count is recorded as 10 of 10.
As to `CCOC(=O)C(CCSC)NC(=O)OCCNCCCl` (stereo not drawn), the T/C was 105 % of control under setting [1], 114 % of control under setting [2] and 111 % of control under setting [3].
With `Cc1ccc(P(=S)(Cl)Cl)cc1`, the T/C under setting [5] is 100 % of control, the T/C under setting [6] was 94 % of control and the T/C under setting [7] was 88 % of control.
For `COc1ccc(P(=S)(Cl)Cl)cc1`, the T/C is 100 % of control under setting [5], 86 % of control under setting [6] and 91 % of control under setting [7]. Also, the survivor count is, setting by setting: under setting [8], 3 of 10; under setting [9], 2 of 10; (dose: 400.0 mg/kg/injection, schedule: Q01DX009 (ip), vehicle: Klucel (hydroxypropylcellulose) (HPC)) 0 of 10.
As to `CCCNC(=O)c1ccc(N(CCCl)CCCl)cc1`, the T/C under setting [4] was 87 % of control [6 of 8 alive]; the T/C under setting [5] is 101 % of control (2×); the T/C under setting [6] is 101 and 104 % of control; the T/C under setting [7] was 96 and 101 % of control; the T/C under setting [8] was 101 [7 of 8 alive] and 109 % of control. Further, the survivor count under setting [9] was 0 of 8.
For `NCCF`, the T/C is 100 % of control [5 of 6 alive] (dose: 1.25 mg/kg/injection, schedule: Q01DX009 (ip), vehicle: Klucel (hydroxypropylcellulose) (HPC)) and 106 % of control (dose: 2.5 mg/kg/injection, schedule: Q01DX009 (ip), vehicle: Klucel (hydroxypropylcellulose) (HPC)). Also, the survivor count (dose: 5.0 mg/kg/injection, schedule: Q01DX009 (ip), vehicle: Klucel (hydroxypropylcellulose) (HPC)) is reported as 0 of 6 and the survivor count (dose: 10.0 mg/kg/injection, schedule: Q01DX009 (ip), vehicle: Klucel (hydroxypropylcellulose) (HPC)) is on record as 0 of 6.
